Z-score data for 66 sequences are collected here from PubChem BioAssay AID1347423 (Functional Genomics Laboratory (NCATS/FGL), 2020).

Out of some 52,000 sequences screened, about 210 (0.4%) were called active.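 Rule for the calls: active = gene whose silencing raises cell survival under the drug, median off-target-corrected z-score across its silencing RNAs 2 or more; inactive = the rest.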 This is one part of the list.

The assay is described as follows: Resistance to Poly (ADP-Ribose) Polymerase inhibitor: Gene Identification via Genome-wide siRNA Screen. The conditions noted are these: mouse BRCA2 R2336H ES cells, olaparib, CellTiter-Glo viability; hits give high values. The method in brief: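 Mouse BRCA2 R2336H ES cells were reverse-transfected with siRNA (20 nM final), treated at 48 h with 500 nM olaparib, and read by CellTiter-Glo after 72 h. Scores: MAD-based z per siRNA, median per gene, seed off-target correction.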
As for GCCUGCAUUAGGAACCAAATT against Galnt9, the z-score is inactive: -1.2. In the case of “GCCAACUAGAAAACAACUGTT against 2700099C19Rik”, the z-score is inactive: -0.308. On to “CGGAUCGGUGCGAGAAUAATT against D930035B09Rik”, for which the z-score is inactive: -0.837.

In the case of GCCUUCAAAUGAAGGAAGGTT against Olfr699, the z-score was inactive: -0.519. For GGCGUAACCUAACAUGGGATT against Clec2, the z-score was inactive: -1.03. In the case of CGAUCUGAGUUUUAUCUCUTT against Gm123, the z-score was inactive: 0.476. With GCUCAGUAUACUUCAGCAUTT against Og9x the figure was inactive: 1.01. Take GCAUGUGUCAAGAUGUCUGTT against Tec: the z-score was inactive: -0.706. With CGAACUGUCAUACAGAUUCTT against Gadd45b, the z-score is inactive: -0.0832. With GGAAUCGUUCCGUAGUGACTT against Olfr959 the figure was inactive: -0.0376. In the case of GGGUUCCUAUGGCAAUGGGTT against Adprhl2, the z-score is inactive: 0.0145. Regarding GGAUUUGUUGACAAGAACATT against Myo1b, the z-score was inactive: -0.0382. For GGGCCUCUAUCAACACUGUTT against Tomm40l, the z-score is inactive: 1.09. Consider GGCCUACGAACAGGUCAUGTT against Foxa2, for which the z-score was inactive: -1.07. GGGAUCAUUGCUGUCCUCUTT against Adora2b: the z-score was inactive: 1.9.

GGGCUUUUACCUGAAUCACTT against Egfl5: the z-score is inactive: 0.684. Then GGAAAUCUUUGAGAACUAUTT against Tpr, with inactive: -2.51; and GGAUCAGUUCAACGGACAGTT against Oas1d, with inactive: -0.486. For GGUGAGAAGGUGCUAGUGUTT against Ugt1a5, the z-score was inactive: 0.72. In the case of CCACAUGCCAAAAUAAUACTT against Oxr1, the z-score is inactive: 0.164. Regarding “CCAGUGGUAUGUGUGCAACTT against 0610012D09Rik”, the z-score was inactive: 3.12. As to AGAUUUUGGGAAUAUAGUGTT against Klra16, the z-score is inactive: 0.187. With GGCUGAACUCAAAAAGACGTT against Hand1, the z-score was inactive: 2.07. For CAGUCGAAUUUCAGUCACATT against Olfr417, the z-score is inactive: -0.762. Take CGAACUGGCUGAGAUCAUCTT against Mrps17: the z-score was inactive: -0.975. With “GGAACUUUUCCUGGCCUCGTT against 9530080O11Rik”, the z-score is inactive: -0.867.

Consider GGAAACUCCGUCCCAAUUGTT against Rnf137, for which the z-score is inactive: 1.96. Take GGAAGUGAGAGUUAAGGCCTT against Rhov: the z-score was inactive: 0.392.

For the sequence “CCCUUUUUUUUCUAGCACCTT against 9430022F06Rik”, the z-score is inactive: 2.36. As for “GCCAGAUCAUUGUAUCAAUTT against A730024F05Rik”, the z-score is inactive: 0.767. Turning to GGAUGAUCCAGACUAACUUTT against Abcb6, the z-score is inactive: 2.85.

For the sequence GGAGGAGAUGAUGAAUUUUTT against Etf1, the z-score was inactive: -2.49. For the sequence GGGAAGAAGAUGGAAUUUATT against Smoc1, the z-score is inactive: 0.217. With “GCAACCUGUUAACAGAAGUTT against 2410015B03Rik” the figure was inactive: 0.966; with GCCCUGAGAAAAAGCUCAUTT against V1rh18, inactive: 0.756.

With GGCACACUUAUCAAAUAAATT against Rrm1, the z-score was inactive: -2.35. Turning to “GGCCUAAAUAAGGAUGUGATT against 1110015E22Rik”, the z-score was inactive: -0.445. As to “UAGAAUCCAUGCAAGGGCGTT against 4931440B09Rik”, the z-score was inactive: 1.06. On to GCACCAGUCGAAUCCUCAATT against AI428855, for which the z-score is inactive: -1.34. As to GGUAGCUAAAGAAAACCAGTT against Rangnrf, the z-score is inactive: -1.18. For the sequence GCUAUCACAAUAAAGGAUATT against Syt14, the z-score is inactive: -0.278. “CGUGCUUCGAUUGUAGUUCTT against C030039L03Rik”: the z-score is inactive: -1.02. With “GGCUAUUUGUAUGCUGGAATT against C030002J06Rik” the figure was inactive: 1.27; with GCACAUCACAAGAAUUACUTT against Lhfp, inactive: -1.62; with CCAAGUGACUACCAUGUCATT against Tesp2, inactive: -0.0666.

With GGAAUUUAGAAGGAUUAGGTT against Ptp4a1, the z-score was inactive: 0.282. Take GGAGCAGAUUCUUCAAUAUTT against Atp11a: the z-score is inactive: -0.714.

For GGAAGCGUAUUUUGGUGAUTT against Cox10, the z-score is inactive: 1.17. Then CCUGUAUAGAGGUGGGAAGTT against Tk2, with inactive: 0.493; and “GGCUAAACCAACCUCGUGCTT against D10Ertd214e”, with inactive: 1.15; and GCCAAGGGUUUGAAAGCCATT against Tpm1, with inactive: -0.934. Take CCUGAGGACCACUACUUUUTT against Arp3b: the z-score is inactive: -2.39. Consider “GGGCAGCUGGAUAGCUAAATT against E230026N22Rik”, for which the z-score is inactive: 0.563.

Regarding “GCUAGAGAAGCUAGAAAAGTT against 2700094L05Rik”, the z-score was inactive: -0.952. Take GGCCAAAUGAAGUCAAAAGTT against Srrp: the z-score was inactive: 2.17. With CGAGGGUCUGAAAAAUUACTT against AU044919 the figure was inactive: 1.54; with GGCGUGUAUCUAUACACACTT against Glp1r, inactive: -0.0599; with “GGAUUAGAGAAAUAGGGCUTT against 9030421J09Rik”, inactive: -0.273. For “GGACAGAGCAGACAUUCAUTT against B130003F20Rik”, the z-score was inactive: -0.977. For the sequence GCUGUCUAUUUCCUAUACUTT against Bcl7a, the z-score is inactive: -0.0581. With GCAGUGCAUAACAUUGCCATT against Marcks, the z-score was inactive: -0.825. For the sequence CGCAAUUCAGGUACCAAAUTT against Ndufv1, the z-score is inactive: -1.44.

On to GGACAAAUGAACAUGCUGATT against Edn2, for which the z-score was inactive: -0.22. With GGAGAACAACCUUCUCAUATT against Cog7, the z-score was inactive: 0.447. In the case of GGAAGAUAAACCUAUCAUCTT against Phlda3, the z-score was inactive: 0.961. As for GGACUUAUGGUUUUUCCCATT against Atp1b3, the z-score was inactive: 1.19.
